Experiment: Evaluation of influence of D-biotin on TSH measurement system in ELISA method
Settings: 0, 1, 10 or 100 ng/mL D-biotin added to specimen (TSH calibrator C3); signal at 0 ng/mL taken as 100%; immobilized plate with matching biotin-labeled TSH antibody

B1: D-tamavidin (trademark) 2: avidin-like protein derived from Pleurotus cornucopiae consisting of D amino acids, 2nd to 141st amino acid sequence of SEQ ID NO: 4 (peptide, listed as Pleurotus cornucopiae)
chain: SDVQSSLTGTWYNELNSKMELTANKDGTLTGKYLSKVGDVYVPYPLSGRYNLQPPAGQGVALGWAVSWENSKIHSATTWSGQFFSESSPVILTQWLLSSSTARGDVWESTLVGNDSFTKTAPTEQQIAHAQLHCRAPRLK
modifications: D-amino acids
- effect of D-biotin addition on TSH ELISA signal: the effect due to the addition of D-biotin was hardly observed

Reference: patent publication US20230288411A1, “POLYPEPTIDE, MULTIMER, SOLID PHASE, MEASUREMENT METHOD FOR TEST SUBSTANCE, AND REAGENT KIT” (SYSMEX CORPORATION, priority 2020, published 2023)
